According to publication PMC7099625, “Exploration of thiaheterocyclic hHDAC6 inhibitors as potential antiplasmodial agents” (Future Medicinal Chemistry, 2017):

System: P. falciparum (Dd2)
Test: Antiplasmodial parasite lactate dehydrogenase assay, chloroquine-resistant strain Dd2
Type: cell-based, Plasmodium falciparum
Details: ratio Dd2 vs NF54
Experimental: Continuous in vitro cultures of asexual erythrocyte stages of P. falciparum were maintained using a modified method of Trager and Jensen. Quantitative assessment of antiplasmodial activity in vitro was determined via the parasite lactate dehydrogenase assay using a modified method described by Makler. The test samples were prepared to a 20 mg/ml stock solution in 100% DMSO. Stock solutions were stored at -20°C. Further dilutions were prepared in complete medium on the day of the experiment. CQ and artesunate were used as the reference drugs. A full dose–response was performed to determine the concentration inhibiting 50% of parasite growth (IC50 value). Test samples were tested at a starting concentration of 100 μg/ml, which was then serially diluted twofold in complete medium to give 10 concentrations; with the lowest concentration being 0.2 μg/ml. The same dilution technique was used for all samples. References were tested at a starting concentration of 1 μg/ml.
The antiplasmodial activity of this set of structures was first determined through a modified parasite lactate dehydrogenase assay against a CQ-sensitive (CQS) strain of P. falciparum (NF54). […] Finally, a selectivity index (SI = IC50 CHO/IC50 NF54) and a resistance index (RI = IC50 Dd2/IC50 NF54) was calculated to be able to easily compare the therapeutic window (active concentration vs toxic concentration) and sensitivity toward resistance developing.

SMILES	RI (resistance index) = IC50 (Dd2)/IC50 (NF54)
O=C(NO)c1ccc(NCc2csc3cc(-c4ccccc4)ccc23)cc1 [Compound 2i]	0.3
O=C(NO)c1ccc(CN2c3cc(C(F)(F)F)ccc3S(=O)(=O)CC3CCCC32)cc1 (racemic) [Compound 3f]	0.8
O=C(NO)c1cccc(Cn2c3c(c4ccccc42)CSCC3)c1 [Compound 1n]	1.5
O=C(NO)c1ccc(Cn2c3c(c4cc(F)ccc42)C[S+]([O-])CC3)cc1 (racemic) [Compound 1k]	2.0
O=C(NO)c1ccc(CN2c3ccccc3S(=O)(=O)CC3CCCC32)cc1 (centres unmarked) [Compound 3d]	2.6
CCN(CC)CCCC(C)Nc1ccnc2cc(Cl)ccc12 (centres unmarked) [Chloroquine, chloroquine, reference compound]	17.5
O=C(NO)c1ccc(NCc2csc3cc(Br)ccc23)cc1 [Compound 2g]	1.2
O=C(NO)c1ccc(Cn2c3c(c4cc(Br)ccc42)CS(=O)(=O)CC3)cc1 [Compound 1i]	3.9
O=C(NO)c1ccc(NCc2csc3ccc(Br)cc23)cc1 [Compound 2c]	2.4
O=C(NO)c1ccc(Cn2c3c(c4cc(F)ccc42)CSCC3)cc1 [Compound 1c]	1.4
O=C(NO)c1cccc(Cn2c3c(c4cc(F)ccc42)CSCC3)c1 [Compound 1o]	1.1
O=C(NO)c1ccc(Cn2c3c(c4ccccc42)C[S+]([O-])CC3)cc1 (racemic) [Compound 1j]	1.0
O=C(NO)c1ccc(CN2c3cc(Cl)ccc3S(=O)(=O)CC3CCCC32)cc1 (racemic) [Compound 3e]	0.9
O=C(NO)c1ccc(NCc2csc3ccccc23)cc1 [Compound 2a]	1.3
